Experimental data from the supplement of paper PMC11732987, “Enantioselective OTUD7B fragment discovery through chemoproteomics screening and high-throughput optimisation” (Communications Chemistry, 2025).
This is one part of the list. The data scatter; read single values as rough.

The chains behind the UniProt entries cited, without tags or fusion partners. Where a name states a change or a piece, a line headed by the entry shows the natural chain unless it says otherwise. Residues count along the entry.
UniProt Q9NP73: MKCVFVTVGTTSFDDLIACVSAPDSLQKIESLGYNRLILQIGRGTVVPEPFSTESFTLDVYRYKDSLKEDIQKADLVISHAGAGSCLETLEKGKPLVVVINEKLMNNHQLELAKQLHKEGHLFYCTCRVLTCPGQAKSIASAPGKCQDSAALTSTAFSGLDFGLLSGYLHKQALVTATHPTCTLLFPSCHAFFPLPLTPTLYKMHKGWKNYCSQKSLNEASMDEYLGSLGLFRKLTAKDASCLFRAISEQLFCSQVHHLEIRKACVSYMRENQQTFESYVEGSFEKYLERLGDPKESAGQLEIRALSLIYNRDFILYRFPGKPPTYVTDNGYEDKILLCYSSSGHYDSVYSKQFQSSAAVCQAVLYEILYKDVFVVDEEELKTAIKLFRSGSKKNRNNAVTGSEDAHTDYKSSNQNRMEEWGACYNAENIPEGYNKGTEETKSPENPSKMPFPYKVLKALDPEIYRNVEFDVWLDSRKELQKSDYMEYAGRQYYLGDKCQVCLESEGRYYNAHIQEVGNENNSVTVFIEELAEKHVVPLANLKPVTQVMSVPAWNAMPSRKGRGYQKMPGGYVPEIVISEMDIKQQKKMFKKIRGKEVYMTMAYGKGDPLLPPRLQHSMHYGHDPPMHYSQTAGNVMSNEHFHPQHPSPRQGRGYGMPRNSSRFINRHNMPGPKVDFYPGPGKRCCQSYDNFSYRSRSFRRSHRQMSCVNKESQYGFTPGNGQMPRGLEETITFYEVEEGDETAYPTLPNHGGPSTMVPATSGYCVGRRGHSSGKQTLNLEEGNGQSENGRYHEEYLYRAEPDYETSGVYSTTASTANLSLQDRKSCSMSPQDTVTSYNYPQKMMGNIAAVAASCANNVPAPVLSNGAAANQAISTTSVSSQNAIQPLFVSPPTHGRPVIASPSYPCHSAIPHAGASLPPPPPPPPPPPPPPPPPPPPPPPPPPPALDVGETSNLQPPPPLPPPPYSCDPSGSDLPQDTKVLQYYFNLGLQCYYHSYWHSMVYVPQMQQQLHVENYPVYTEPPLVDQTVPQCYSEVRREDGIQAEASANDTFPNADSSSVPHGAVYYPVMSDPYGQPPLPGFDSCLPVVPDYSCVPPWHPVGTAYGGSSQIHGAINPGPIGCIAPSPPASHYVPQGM
UniProt Q9NUQ2: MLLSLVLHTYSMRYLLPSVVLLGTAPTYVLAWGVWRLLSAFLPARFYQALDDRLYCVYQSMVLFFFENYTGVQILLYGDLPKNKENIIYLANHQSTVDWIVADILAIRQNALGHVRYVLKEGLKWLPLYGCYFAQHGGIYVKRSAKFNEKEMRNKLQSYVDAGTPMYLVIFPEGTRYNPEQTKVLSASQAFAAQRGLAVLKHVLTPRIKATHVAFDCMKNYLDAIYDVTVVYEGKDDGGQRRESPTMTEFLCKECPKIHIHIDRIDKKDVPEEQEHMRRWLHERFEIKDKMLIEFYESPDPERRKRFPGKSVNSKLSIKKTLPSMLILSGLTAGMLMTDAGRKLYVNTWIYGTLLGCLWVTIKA
UniProt Q12802: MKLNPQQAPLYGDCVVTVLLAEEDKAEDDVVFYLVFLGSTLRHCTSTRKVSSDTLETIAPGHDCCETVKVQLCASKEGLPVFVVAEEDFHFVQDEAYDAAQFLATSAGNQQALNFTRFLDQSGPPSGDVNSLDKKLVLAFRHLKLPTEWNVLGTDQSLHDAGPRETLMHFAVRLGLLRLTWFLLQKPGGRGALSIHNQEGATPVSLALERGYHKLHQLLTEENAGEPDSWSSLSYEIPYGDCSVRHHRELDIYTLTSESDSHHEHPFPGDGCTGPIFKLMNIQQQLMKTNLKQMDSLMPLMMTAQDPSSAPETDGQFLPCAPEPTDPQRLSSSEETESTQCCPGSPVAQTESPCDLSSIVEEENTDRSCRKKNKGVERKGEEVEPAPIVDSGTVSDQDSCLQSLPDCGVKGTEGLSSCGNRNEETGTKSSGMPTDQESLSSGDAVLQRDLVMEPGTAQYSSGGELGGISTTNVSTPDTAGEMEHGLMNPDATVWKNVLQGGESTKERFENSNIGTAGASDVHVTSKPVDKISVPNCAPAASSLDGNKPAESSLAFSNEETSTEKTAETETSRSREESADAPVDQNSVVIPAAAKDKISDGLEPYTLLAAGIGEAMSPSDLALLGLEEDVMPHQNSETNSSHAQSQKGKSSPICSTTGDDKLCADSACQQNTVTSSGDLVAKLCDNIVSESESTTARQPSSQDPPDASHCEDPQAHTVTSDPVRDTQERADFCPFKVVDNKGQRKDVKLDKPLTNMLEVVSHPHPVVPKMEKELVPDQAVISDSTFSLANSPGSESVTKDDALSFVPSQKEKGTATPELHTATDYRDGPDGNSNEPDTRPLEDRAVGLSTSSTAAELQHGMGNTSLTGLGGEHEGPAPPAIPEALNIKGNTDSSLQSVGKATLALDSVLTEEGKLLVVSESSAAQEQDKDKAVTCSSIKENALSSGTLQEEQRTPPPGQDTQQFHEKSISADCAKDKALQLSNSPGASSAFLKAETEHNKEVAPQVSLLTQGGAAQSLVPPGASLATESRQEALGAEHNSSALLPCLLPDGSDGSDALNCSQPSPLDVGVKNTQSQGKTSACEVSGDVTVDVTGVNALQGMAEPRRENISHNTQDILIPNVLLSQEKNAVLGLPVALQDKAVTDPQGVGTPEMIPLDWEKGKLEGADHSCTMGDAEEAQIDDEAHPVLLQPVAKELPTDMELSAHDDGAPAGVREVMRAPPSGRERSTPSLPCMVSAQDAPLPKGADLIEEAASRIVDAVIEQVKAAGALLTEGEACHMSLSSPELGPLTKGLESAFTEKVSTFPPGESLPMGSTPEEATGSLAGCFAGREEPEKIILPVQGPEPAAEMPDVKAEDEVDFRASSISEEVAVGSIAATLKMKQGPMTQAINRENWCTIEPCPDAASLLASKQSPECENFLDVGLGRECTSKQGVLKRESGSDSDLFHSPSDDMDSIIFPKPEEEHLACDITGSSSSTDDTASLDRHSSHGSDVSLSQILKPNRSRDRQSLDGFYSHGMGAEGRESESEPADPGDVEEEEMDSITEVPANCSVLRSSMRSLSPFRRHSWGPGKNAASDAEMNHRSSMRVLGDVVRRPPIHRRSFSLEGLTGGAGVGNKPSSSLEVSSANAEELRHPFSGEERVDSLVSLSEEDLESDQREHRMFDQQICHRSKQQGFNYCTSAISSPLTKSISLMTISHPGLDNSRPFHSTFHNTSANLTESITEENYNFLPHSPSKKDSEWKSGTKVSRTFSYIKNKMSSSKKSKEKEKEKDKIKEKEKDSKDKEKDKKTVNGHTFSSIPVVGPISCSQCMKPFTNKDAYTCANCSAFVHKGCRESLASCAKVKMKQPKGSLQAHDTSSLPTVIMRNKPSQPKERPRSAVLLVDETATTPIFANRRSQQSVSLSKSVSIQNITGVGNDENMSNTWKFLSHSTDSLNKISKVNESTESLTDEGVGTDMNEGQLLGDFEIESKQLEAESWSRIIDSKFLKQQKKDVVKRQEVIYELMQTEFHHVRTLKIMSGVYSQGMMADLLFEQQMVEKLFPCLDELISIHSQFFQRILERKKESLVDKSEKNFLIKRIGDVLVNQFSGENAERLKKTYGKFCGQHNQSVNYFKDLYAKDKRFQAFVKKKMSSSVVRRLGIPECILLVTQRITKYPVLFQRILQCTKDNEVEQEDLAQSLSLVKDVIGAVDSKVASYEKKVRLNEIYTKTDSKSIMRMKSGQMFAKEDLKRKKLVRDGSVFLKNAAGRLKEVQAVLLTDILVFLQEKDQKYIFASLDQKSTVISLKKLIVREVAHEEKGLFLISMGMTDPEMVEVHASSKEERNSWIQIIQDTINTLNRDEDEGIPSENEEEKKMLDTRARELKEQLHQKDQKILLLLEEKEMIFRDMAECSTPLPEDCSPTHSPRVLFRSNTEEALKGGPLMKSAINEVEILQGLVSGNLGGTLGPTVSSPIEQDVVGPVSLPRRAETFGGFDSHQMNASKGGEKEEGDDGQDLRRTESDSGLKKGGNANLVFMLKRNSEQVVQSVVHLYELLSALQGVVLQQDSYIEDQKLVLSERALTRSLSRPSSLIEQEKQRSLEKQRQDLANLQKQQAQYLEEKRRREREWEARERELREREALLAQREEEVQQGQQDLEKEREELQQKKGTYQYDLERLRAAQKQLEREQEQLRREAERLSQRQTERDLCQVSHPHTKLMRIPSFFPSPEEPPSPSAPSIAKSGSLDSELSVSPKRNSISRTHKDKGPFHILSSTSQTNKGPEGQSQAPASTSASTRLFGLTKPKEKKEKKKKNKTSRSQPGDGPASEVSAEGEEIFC
UniProt Q9UKA4, 214-234: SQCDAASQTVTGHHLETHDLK
UniProt Q9NRZ5, 257-276: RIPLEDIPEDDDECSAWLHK
UniProt Q6IQ32: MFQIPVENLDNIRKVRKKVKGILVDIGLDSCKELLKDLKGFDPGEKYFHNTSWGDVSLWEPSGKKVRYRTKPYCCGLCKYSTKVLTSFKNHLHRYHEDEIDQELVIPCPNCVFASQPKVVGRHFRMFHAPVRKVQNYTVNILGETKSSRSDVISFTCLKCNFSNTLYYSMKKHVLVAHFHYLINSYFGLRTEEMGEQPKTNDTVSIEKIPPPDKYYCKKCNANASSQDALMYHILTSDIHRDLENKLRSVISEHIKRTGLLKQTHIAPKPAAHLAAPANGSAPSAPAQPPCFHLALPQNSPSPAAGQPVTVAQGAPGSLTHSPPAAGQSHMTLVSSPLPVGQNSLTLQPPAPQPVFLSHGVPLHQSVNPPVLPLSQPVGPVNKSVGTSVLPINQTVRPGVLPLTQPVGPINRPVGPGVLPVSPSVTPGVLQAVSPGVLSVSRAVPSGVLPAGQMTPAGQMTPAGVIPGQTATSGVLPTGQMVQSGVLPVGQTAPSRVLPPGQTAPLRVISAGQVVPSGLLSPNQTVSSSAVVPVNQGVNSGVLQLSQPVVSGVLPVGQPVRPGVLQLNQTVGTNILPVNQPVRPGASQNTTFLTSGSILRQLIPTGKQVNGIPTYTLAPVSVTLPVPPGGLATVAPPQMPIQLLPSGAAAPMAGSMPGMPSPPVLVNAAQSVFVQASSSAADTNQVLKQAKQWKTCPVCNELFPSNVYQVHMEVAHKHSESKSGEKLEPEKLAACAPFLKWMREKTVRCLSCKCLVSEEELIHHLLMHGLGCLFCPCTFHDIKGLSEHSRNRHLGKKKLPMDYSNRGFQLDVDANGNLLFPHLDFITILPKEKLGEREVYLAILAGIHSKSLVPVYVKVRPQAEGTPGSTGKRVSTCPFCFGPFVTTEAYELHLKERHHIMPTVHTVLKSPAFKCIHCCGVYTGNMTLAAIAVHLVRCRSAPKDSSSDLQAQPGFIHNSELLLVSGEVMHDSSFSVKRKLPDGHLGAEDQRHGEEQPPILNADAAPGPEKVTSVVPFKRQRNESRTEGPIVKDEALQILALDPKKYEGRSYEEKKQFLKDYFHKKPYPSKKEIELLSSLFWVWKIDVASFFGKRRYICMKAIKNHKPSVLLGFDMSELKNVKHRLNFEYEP
UniProt Q9UJX5: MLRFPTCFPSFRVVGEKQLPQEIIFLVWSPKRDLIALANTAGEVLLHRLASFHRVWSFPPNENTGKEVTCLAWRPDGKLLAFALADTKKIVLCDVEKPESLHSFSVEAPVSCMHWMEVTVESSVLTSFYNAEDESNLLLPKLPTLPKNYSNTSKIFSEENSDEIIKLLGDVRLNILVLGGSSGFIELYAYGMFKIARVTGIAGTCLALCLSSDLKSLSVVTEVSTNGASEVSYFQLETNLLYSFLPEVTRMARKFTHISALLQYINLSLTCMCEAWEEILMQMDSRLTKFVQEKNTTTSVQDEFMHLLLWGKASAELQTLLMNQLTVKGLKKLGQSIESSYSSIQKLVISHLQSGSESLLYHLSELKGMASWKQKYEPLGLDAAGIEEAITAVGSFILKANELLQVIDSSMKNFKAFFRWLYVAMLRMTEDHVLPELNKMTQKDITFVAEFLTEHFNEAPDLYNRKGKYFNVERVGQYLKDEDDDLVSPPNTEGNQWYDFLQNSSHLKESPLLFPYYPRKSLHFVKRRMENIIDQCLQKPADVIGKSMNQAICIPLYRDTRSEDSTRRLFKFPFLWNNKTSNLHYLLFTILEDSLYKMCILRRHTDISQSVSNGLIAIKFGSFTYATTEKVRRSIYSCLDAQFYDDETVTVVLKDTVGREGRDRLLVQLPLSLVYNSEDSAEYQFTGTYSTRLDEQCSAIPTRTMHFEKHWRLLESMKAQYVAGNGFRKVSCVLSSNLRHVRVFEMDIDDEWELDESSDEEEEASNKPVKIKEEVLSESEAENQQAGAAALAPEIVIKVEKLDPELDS
UniProt Q9NXW9: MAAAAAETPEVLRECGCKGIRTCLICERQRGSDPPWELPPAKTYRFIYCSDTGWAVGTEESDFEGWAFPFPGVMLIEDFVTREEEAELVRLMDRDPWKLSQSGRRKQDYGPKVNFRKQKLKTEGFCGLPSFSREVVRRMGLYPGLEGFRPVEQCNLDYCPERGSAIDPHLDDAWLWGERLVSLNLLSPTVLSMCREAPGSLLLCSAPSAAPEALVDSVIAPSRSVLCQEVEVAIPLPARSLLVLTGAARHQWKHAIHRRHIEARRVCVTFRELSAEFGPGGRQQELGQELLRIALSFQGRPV

These targets were tested with ClCC(=O)N[C@@H]1CCCc2ccccc12 (assay: log2 mean competition ratio of IA-DTB cysteine labelling (DMSO/compound) (log2 ratio); higher = stronger cysteine engagement by compound). Settings: 50 µM; treatment time: 4 h; cell line lysate: HEK293T.
Method: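 IA-DTB competitive cysteine chemoproteomics in HEK293T RIPA lysate. Lysates were treated with compound 29 or 30 at 50 or 200 µM for 4 h, then IA-DTB (500 µM, 1 h), trypsin-digested, NeutrAvidin-enriched and analysed by diaPASEF. Competition ratio = intensity DMSO / intensity compound (n=4 treated, n=64 DMSO); binding: mean log2 CR ≥ 1 and p ≤ 0.05 plus QC filters. Target is the cysteine site.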

ADH5 C282 (UniProt P11766) was tested. Which “log2 mean competition ratio” value did it give?
The value was -0.09.

ACSL4 C157 (UniProt O60488) was tested. Which “log2 mean competition ratio” value did it give?
Its value is -0.34.

Which “log2 mean competition ratio” value does the source give for ALG13 C132 (UniProt Q9NP73) here?
Its value is -0.13.

With AGPAT5 C252 (UniProt Q9NUQ2) as the target, how does the “log2 mean competition ratio” value read?
The value was 0.144.

Which “log2 mean competition ratio” value does the source give for ACTR10 C183 (UniProt Q9NZ32) here?
Its value is -0.224.

ACTR5 C48 (UniProt Q9H9F9) was tested. Which “log2 mean competition ratio” value did it give?
Its value is -0.315.

How did the “log2 mean competition ratio” value turn out when ADNP C223 (UniProt Q9H2P0) was run?
Its value is 0.0505.

For AKAP13 C2685 (UniProt Q12802), which “log2 mean competition ratio” value is on record?
The value was -0.18.

Which “log2 mean competition ratio” value does the source give for AKAP13 C73 (UniProt Q12802) here?
Its value is 0.00445.

For AKAP11 C216 (UniProt Q9UKA4), which “log2 mean competition ratio” value is on record?
The value was 0.106.

How did the “log2 mean competition ratio” value turn out when AGPAT4 C270 (UniProt Q9NRZ5) was run?
The value was 0.264.

ADAR C630 (UniProt P55265) was tested. Which “log2 mean competition ratio” value did it give?
Its value is 0.0594.

With ACTN1 C480 as the target, how does the “log2 mean competition ratio” value read?
Its value is 0.647.

Which “log2 mean competition ratio” value does the source give for ALDH18A1 C546 (UniProt P54886) here?
Its value is -0.245.

For AHCTF1 C354 (UniProt Q8WYP5), which “log2 mean competition ratio” value is on record?
The value was -0.0949.

For ACTN1 C370, which “log2 mean competition ratio” value is on record?
The value was 0.282.

Which “log2 mean competition ratio” value does the source give for AGPAT5 C217 (UniProt Q9NUQ2) here?
Its value is 0.37.

With ACTR2 C11 (UniProt P61160) as the target, how does the “log2 mean competition ratio” value read?
The value was 0.184.

How did the “log2 mean competition ratio” value turn out when AGO2 C188 was run?
Its value is 0.0187.

For ACSS3 C428 (UniProt Q9H6R3), which “log2 mean competition ratio” value is on record?
Its value is 0.631.

AMOTL1 C748 (UniProt Q8IY63) was tested. Which “log2 mean competition ratio” value did it give?
Its value is -0.0677.

How did the “log2 mean competition ratio” value turn out when ADAM10 C435 (UniProt O14672) was run?
The value was 0.314.

With AHDC1 C1461 (UniProt Q5TGY3) as the target, how does the “log2 mean competition ratio” value read?
The value was 0.00497.

ADNP2 C735 (UniProt Q6IQ32) was tested. Which “log2 mean competition ratio” value did it give?
The value was 0.111.

AGFG2 C30 (UniProt O95081) was tested. Which “log2 mean competition ratio” value did it give?
The value was 0.157.

Which “log2 mean competition ratio” value does the source give for ALDH9A1 C45 (UniProt P49189) here?
Its value is -0.278.

Which “log2 mean competition ratio” value does the source give for ANAPC5 C203 (UniProt Q9UJX4) here?
Its value is 0.0186.

ACSL6 C625 (UniProt Q9UKU0) was tested. Which “log2 mean competition ratio” value did it give?
Its value is -0.0653.

With AKAP10 C110 (UniProt O43572) as the target, how does the “log2 mean competition ratio” value read?
Its value is -0.0659.

How did the “log2 mean competition ratio” value turn out when AHSA1 C301 (UniProt O95433) was run?
Its value is 0.107.

How did the “log2 mean competition ratio” value turn out when AHCYL1 C106 (UniProt O43865) was run?
The value was -0.146.

ANAPC4 C536 (UniProt Q9UJX5) was tested. Which “log2 mean competition ratio” value did it give?
The value was -0.228.

For ALG13 C86 (UniProt Q9NP73), which “log2 mean competition ratio” value is on record?
Its value is 0.123.

With ALAS1 C544 (UniProt P13196) as the target, how does the “log2 mean competition ratio” value read?
Its value is -0.0849.

How did the “log2 mean competition ratio” value turn out when ACTR6 C28 (UniProt Q9GZN1) was run?
The value was 0.0423.

With ALKBH4 C126 (UniProt Q9NXW9) as the target, how does the “log2 mean competition ratio” value read?
The value was 0.379.

AFDN C960 was tested. Which “log2 mean competition ratio” value did it give?
The value was -0.0533.

Same assay, conditions: 200 µM; treatment time: 4 h; cell line lysate: HEK293T

How did the “log2 mean competition ratio” value turn out when ADH5 C282 (UniProt P11766) was run?
Its value is -0.167.

Which “log2 mean competition ratio” value does the source give for ACSL4 C157 (UniProt O60488) here?
Its value is -0.365.

How did the “log2 mean competition ratio” value turn out when ALG13 C132 (UniProt Q9NP73) was run?
The value was -0.145.

For AGPAT5 C252 (UniProt Q9NUQ2), which “log2 mean competition ratio” value is on record?
The value was -0.0141.

With ACTR10 C183 (UniProt Q9NZ32) as the target, how does the “log2 mean competition ratio” value read?
The value was 0.353.

Which “log2 mean competition ratio” value does the source give for ACTR5 C48 (UniProt Q9H9F9) here?
Its value is -0.0775.

ADNP C223 (UniProt Q9H2P0) was tested. Which “log2 mean competition ratio” value did it give?
The value was 0.405.

With AKAP13 C2685 (UniProt Q12802) as the target, how does the “log2 mean competition ratio” value read?
The value was 0.0163.

For AKAP13 C73 (UniProt Q12802), which “log2 mean competition ratio” value is on record?
Its value is -0.215.

Which “log2 mean competition ratio” value does the source give for AKAP11 C216 (UniProt Q9UKA4) here?
Its value is -0.164.

AGPAT4 C270 (UniProt Q9NRZ5) was tested. Which “log2 mean competition ratio” value did it give?
Its value is 0.235.

How did the “log2 mean competition ratio” value turn out when ADAR C630 (UniProt P55265) was run?
The value was 0.173.

For ACTN1 C480, which “log2 mean competition ratio” value is on record?
The value was 0.031.

ALDH18A1 C546 (UniProt P54886) was tested. Which “log2 mean competition ratio” value did it give?
The value was 0.25.

For AHCTF1 C354 (UniProt Q8WYP5), which “log2 mean competition ratio” value is on record?
The value was -0.196.

With ACTN1 C370 as the target, how does the “log2 mean competition ratio” value read?
The value was -0.0808.

How did the “log2 mean competition ratio” value turn out when AGPAT5 C217 (UniProt Q9NUQ2) was run?
The value was 0.296.

For ACTR2 C11 (UniProt P61160), which “log2 mean competition ratio” value is on record?
Its value is 0.205.

Which “log2 mean competition ratio” value does the source give for AGO2 C188 here?
Its value is -0.0801.

For ACSS3 C428 (UniProt Q9H6R3), which “log2 mean competition ratio” value is on record?
The value was -0.0145.

Which “log2 mean competition ratio” value does the source give for AMOTL1 C748 (UniProt Q8IY63) here?
The value was 0.497.

Which “log2 mean competition ratio” value does the source give for ADAM10 C435 (UniProt O14672) here?
The value was 0.00704.

AHDC1 C1461 (UniProt Q5TGY3) was tested. Which “log2 mean competition ratio” value did it give?
Its value is 0.404.

ADNP2 C735 (UniProt Q6IQ32) was tested. Which “log2 mean competition ratio” value did it give?
Its value is 0.101.

AGFG2 C30 (UniProt O95081) was tested. Which “log2 mean competition ratio” value did it give?
Its value is 0.218.

How did the “log2 mean competition ratio” value turn out when ALDH9A1 C45 (UniProt P49189) was run?
The value was -0.281.

Which “log2 mean competition ratio” value does the source give for ANAPC5 C203 (UniProt Q9UJX4) here?
Its value is -0.00639.

For ACSL6 C625 (UniProt Q9UKU0), which “log2 mean competition ratio” value is on record?
The value was -0.214.

Which “log2 mean competition ratio” value does the source give for AKAP10 C110 (UniProt O43572) here?
The value was 0.133.

How did the “log2 mean competition ratio” value turn out when AHSA1 C301 (UniProt O95433) was run?
The value was -0.553.

With AHCYL1 C106 (UniProt O43865) as the target, how does the “log2 mean competition ratio” value read?
The value was -0.483.

How did the “log2 mean competition ratio” value turn out when ANAPC4 C536 (UniProt Q9UJX5) was run?
The value was 0.294.

Which “log2 mean competition ratio” value does the source give for ALG13 C86 (UniProt Q9NP73) here?
The value was -0.112.

For ALAS1 C544 (UniProt P13196), which “log2 mean competition ratio” value is on record?
The value was 0.132.

With ACTR6 C28 (UniProt Q9GZN1) as the target, how does the “log2 mean competition ratio” value read?
The value was 0.0121.

For ALKBH4 C126 (UniProt Q9NXW9), which “log2 mean competition ratio” value is on record?
The value was 0.384.

For AFDN C960, which “log2 mean competition ratio” value is on record?
Its value is 0.273.
